The text below walks through data of publication PMC7819943, “Rice protein-binding microarrays: a tool to detect cis-acting elements near promoter regions in rice”.

Sequences of proteins named here, by UniProt entry; tags and fusion partners are left off.
UniProt Q0JBA9, entry or part of it: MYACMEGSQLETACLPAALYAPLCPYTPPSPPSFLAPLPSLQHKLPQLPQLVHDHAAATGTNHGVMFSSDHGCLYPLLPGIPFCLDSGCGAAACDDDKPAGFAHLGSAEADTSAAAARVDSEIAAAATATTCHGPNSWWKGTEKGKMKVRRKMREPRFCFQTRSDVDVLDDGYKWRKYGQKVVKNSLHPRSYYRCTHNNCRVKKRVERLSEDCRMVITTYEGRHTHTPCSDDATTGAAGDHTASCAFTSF

This is one part of the list.

The target of this assay is OsWRKY34 (Oryza sativa, UniProt Q0JBA9 1-250). Briefly: protein-binding microarray (RPBM); PBS, 2% BSA, 51.3 ng/ul salmon testes DNA, 50 uM zinc acetate, 200 nM TF, 25 C, 1 h; high values mean tight binding. To be noted: protein: recombinant; tags: N-terminal polyhistidine and DsRed monomer fusion (pET32a); label: CyDye5-dUTP incorporated in the synthesized complementary strand; 3' TTTTT single-stranded linker to array surface; dsDNA, one strand shown. The procedure, abridged: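 Polyhistidine-tagged DsRed fusions of transcription factors, joined at the N-terminus, were expressed in E. coli BL21-CodonPlus and isolated on Ni–NTA. They were incubated at 200 nM for 1 h at 25 °C on a custom Agilent array, double-stranded and BSA-blocked, in PBS with 2% BSA, salmon testes DNA and 50 µM zinc acetate. The binding signal is per-feature fluorescence intensity (arbitrary units) read on an Axon 4000B scanner after washing.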
Take “TTCCCCACCCGCTCTAGCCGCCCTCGCCGCCGCCGGAGCCCGGAGTCACCTAGTGCAG”: the binding signal was 8200 fluorescence intensity (a.u.). The figure for “TTTCCTTTTTTTGTCGGTGTTGGAAATAATTCCCAAGTCTCGGAGTCACCTAGTGCAG” is 8800 fluorescence intensity (a.u.); for “GTCAAAAGATACTACATCGTCCTCAGGGACCTTGCTCCGTCGGAGTCACCTAGTGCAG” it is 8470 fluorescence intensity (a.u.). The figure for “AGCCTCATATTTTTCTTATTCTTATACTTATCAGCTAAAACGGAGTCACCTAGTGCAG” is 9740 fluorescence intensity (a.u.); for “AACGCTCCCAAGCTACCACGTGGCCTCCTACAAACTCTCACGGAGTCACCTAGTGCAG” it is 9540 fluorescence intensity (a.u.).

Turning to “AATCTATCGTTAGCAAATGTTTACTGTAGCACAATATTGTCGGAGTCACCTAGTGCAG”, the binding signal was 8110 fluorescence intensity (a.u.). In the case of “ATATGCCGACAATGATTTTTTTTATTTTGGTGTTGCTATACGGAGTCACCTAGTGCAG”, the binding signal was 8820 fluorescence intensity (a.u.).

As for “TCCTCTCCACGCCGTCTAGTCTCGTCTCGTCTCGCCGACCCGGAGTCACCTAGTGCAG”, the binding signal is 10200 fluorescence intensity (a.u.).

Consider “GAACGATACCTTGGCTAACTCCCGCACTTCCTTGCTTGGTCGGAGTCACCTAGTGCAG”, for which the binding signal is 12400 fluorescence intensity (a.u.). In the case of “TTACAAAACTTTTAGGTATGATTTTCACGAGTTTTCAACACGGAGTCACCTAGTGCAG” it was 8390 fluorescence intensity (a.u.); in that of “GACAGTTCCGCTGTTCCGTGTCCGTTTCACCTGGAGTAGTCGGAGTCACCTAGTGCAG”, 8860 fluorescence intensity (a.u.); in that of “AGGGAGTATATTTGCAACGGTTTTGGAAATTAGGGGCGGGCGGAGTCACCTAGTGCAG”, 11700 fluorescence intensity (a.u.).

For “CACCGTACCTCGCCATATCGTCAAGCAGCAGTGCTAACTACGGAGTCACCTAGTGCAG”, the binding signal was 9120 fluorescence intensity (a.u.).

Take “TTTTTGTACTGTTAATTAGCTTTCATACCGTTTTTGTAAGCGGAGTCACCTAGTGCAG”: the binding signal is 9410 fluorescence intensity (a.u.). In the case of “CGATCGCAAAAAAGAAAAAAAAAACAATTTCCTTTTGGGGCGGAGTCACCTAGTGCAG” it was 8310 fluorescence intensity (a.u.); in that of “AACCACTTCTCCACCTGTGTCAGTTGCAAACCATTGATCTCGGAGTCACCTAGTGCAG”, 9210 fluorescence intensity (a.u.). In the case of “GTATACTTTCTCCATCCCATAAAAAACCATGGTACTATATCGGAGTCACCTAGTGCAG” it was 8400 fluorescence intensity (a.u.); in that of “TTGCGCTTCTAGCTCCAATATCTCGGTCTTCTTGTCCTCCCGGAGTCACCTAGTGCAG”, 8290 fluorescence intensity (a.u.). For the sequence “TTTTTTCGGTGTTTTTCTTTTTGTTTCTTTTCGCTTCGCTCGGAGTCACCTAGTGCAG”, the binding signal was 12700 fluorescence intensity (a.u.). The figure for “TCGTCGGCGTCGCGTTCACGGCCGCCGTGGCCGTGGCCGTCGGAGTCACCTAGTGCAG” is 16500 fluorescence intensity (a.u.); for “CATTTGATCGTTCGTTTTATTTGAATTATTTTATGATTAACGGAGTCACCTAGTGCAG” it is 9280 fluorescence intensity (a.u.). In the case of “CCACCGTGATTTTCGCTCCCATCACCGCGCGAGGACTCCGCGGAGTCACCTAGTGCAG” it was 10900 fluorescence intensity (a.u.); in that of “ATTCGTTCATTTTTTCTATGGCATATTTTTTTATGGTAAACGGAGTCACCTAGTGCAG”, 9480 fluorescence intensity (a.u.). The figure for “CGCCACTACAAATACCACCACCTCGATCGTCGCCGCCGCGCGGAGTCACCTAGTGCAG” is 10800 fluorescence intensity (a.u.). As to “AAGACATTTTGGTCCAATTTGACCGATCTGCTGGTCACTGCGGAGTCACCTAGTGCAG”, the binding signal is 8110 fluorescence intensity (a.u.). The figure for “AAGGTCAAACCGGGTCAGGTTGTTTGATGACGTGGCTTATCGGAGTCACCTAGTGCAG” is 8850 fluorescence intensity (a.u.); for “TCGGATTTGGGGAGGTGTTATACCTGGTTTTATGGCTGAGCGGAGTCACCTAGTGCAG” it is 14700 fluorescence intensity (a.u.).

With “TCACCAAACATATCGATCCATCCCTCTACCAGTCAAGAAACGGAGTCACCTAGTGCAG”, the binding signal was 8990 fluorescence intensity (a.u.).

Take “GTTTTAATGGTTAGAGGGGTCGATGTAAACGTTTTTGCCGCGGAGTCACCTAGTGCAG”: the binding signal was 9250 fluorescence intensity (a.u.). “TCTTATGTGCTTGCTTGCTACGTCCGGAGTCCCTGGACTACGGAGTCACCTAGTGCAG”: the binding signal is 9840 fluorescence intensity (a.u.). The figure for “CCACCACTGTGGCGCCTGACACAGCTCACACCTTTGACGACGGAGTCACCTAGTGCAG” is 8480 fluorescence intensity (a.u.); for “CCATGCTTGCTTTCCTGATTTCTTAATTCGCATCATTTCGCGGAGTCACCTAGTGCAG” it is 9870 fluorescence intensity (a.u.); for “ATACGACACTCCATATACACTGTAGTGACCATATAAGTTACGGAGTCACCTAGTGCAG” it is 8100 fluorescence intensity (a.u.).

Take “AATCGTCGTGCCATGTTCGATCCTCGTCTCTCGTCGCAGACGGAGTCACCTAGTGCAG”: the binding signal was 11800 fluorescence intensity (a.u.). The figure for “CATGCAATCATCAGAAACGGCATCGCAACAGCACAGCACCCGGAGTCACCTAGTGCAG” is 8080 fluorescence intensity (a.u.). For the sequence “CGTGCGATTTGGGTTTGGGGCGTGCAATCATCATGATGCGCGGAGTCACCTAGTGCAG”, the binding signal is 9920 fluorescence intensity (a.u.). In the case of “CTTTTTTCTGCTTCCTTTTTCTGTTTGCGAAATTCGATGTCGGAGTCACCTAGTGCAG” it was 11500 fluorescence intensity (a.u.); in that of “TCCTACACACATAAATTTCTAATTTTTCCGTCACATCGTTCGGAGTCACCTAGTGCAG”, 8130 fluorescence intensity (a.u.). For “TTTTTCTGTACGAAAACCCCTATCTTTCACACATCTTTTACGGAGTCACCTAGTGCAG”, the binding signal is 8280 fluorescence intensity (a.u.). In the case of “ACTTATTCCACCCGTGAGGCCGTGACGCTACTGCGCGGCCCGGAGTCACCTAGTGCAG” it was 8090 fluorescence intensity (a.u.); in that of “CATATTCAATTAGTGTGAGATTATATTTCTACGTTTTTTTCGGAGTCACCTAGTGCAG”, 9560 fluorescence intensity (a.u.).

Consider “GTTGTCCTGCCTTCGCCGCCAAGTTGCGCCGCCACCATCGCGGAGTCACCTAGTGCAG”, for which the binding signal is 8220 fluorescence intensity (a.u.).
